The record followed here is PMC12040169 (PLOS Biology, 2025).

This is one part of the list.

The subject of the experiment is T1, CTL2-GFP (C. trachomatis L2/434/Bu, GFP-expressing).
T1 construct: L2/434/Bu, GFP-expressing
Set-up: species or system HeLa; Intracellular C. trachomatis growth in HeLa cells, bulk GFP fluorescence relative to DMSO. The settings on record: bulk GFP, single well; 28.5 h, 10 µM; inhibitor.
As for `COc1ccc(C(NC(=O)C2CCN(Cc3ccc4c(c3)OCO4)CC2)c2ccccc2C)cn1` (stereo not drawn) [CBK081453T], the “% of control remaining” value is listed as 117.907%.

`Cn1cc(C(=O)NC2CCN(C(=O)c3ccc(C#N)cc3)CC2)cn1` [CBK305683]: the “% of control remaining” value was 94.7616%.

On to `C=Cn1cccc1C(=O)N1C2CCC1c1cnc3cc(C)nn3c1C2` (stereo not drawn) [CBK284382], for which the “% of control remaining” value is listed as 119.097%.

As to `Cc1cc2ccccc2n1CCC(=O)NC1CCCOC1` (stereo not drawn) [CBK283152], the “% of control remaining” value is 110.416%.

Take `Cc1cc(OCC(=O)N(C)C)c2c3c(c(=O)oc2c1)CCCC3` [CBK307189]: the “% of control remaining” value came to 106.714%.

Consider `O=C(N/N=C/c1cc2c(cc1Cl)OCO2)C(O)c1ccccc1` (stereo not drawn) [CBK262177], for which the “% of control remaining” value is recorded as 100.487%.

With `Cc1ccc(-c2nc3ccccc3[nH]2)cc1NC(=O)CSc1ccc(Cl)cc1` [CBK268942], the “% of control remaining” value worked out at 166.038%.

Regarding `Cc1ccc2[nH]c(-c3ccccc3NC(=O)CCCC(=O)O)nc2c1` [CBK295154], the “% of control remaining” value is 168.007%.

For the compound `CCOC(=O)Nc1ccc2c(c1)N(C(=O)CCN(C)C)c1ccccc1CC2` [CBK278193C], the “% of control remaining” value was determined as 100%.

As to `CC1CCCN(C(=O)CN2C3CCC2CC(O)(c2ccco2)C3)C1` (stereo not drawn) [CBK284095], the “% of control remaining” value came to 96.3237%.

For `CCOc1ccc(C(=O)N2CC(C(N)=O)CCC2C)cn1` (stereo not drawn) [CBK305770], the “% of control remaining” value is listed as 123.673%.

As for `O=C(/C=C/c1ccccc1Cl)NCCc1ccccc1` [CBK261794], the “% of control remaining” value is 121.607%.

In the case of `CC(=O)N1CCc2c([nH]c3ccccc23)C12CCCN(CCC#N)C2` (stereo not drawn) [CBK039665], the “% of control remaining” value came out at 126.332%.

`COc1nccc(N2CCN(C(=O)C3CC3)CC(O)C2)c1C#N` (stereo not drawn) [CBK306613]: the “% of control remaining” value is recorded as 124.027%.

For `O=C(NCc1ccc(Cl)cc1)c1cn(-c2ccccc2)c2ccc(CN3CCOCC3)cc2c1=O` [CBK018481], the “% of control remaining” value came out at 112.49%.

With `COc1ccc(CN2CCCN(c3nccc(OCc4cc(C)on4)n3)CC2)cc1` [CBK083911], the “% of control remaining” value is 113.738%.

With `Cc1c(C(=O)O)sc2nc(SC/C=C/c3ccccc3)nc(N)c12` [CBK300523], the “% of control remaining” value is on record as 133.747%.

For the compound `CC(NS(=O)(=O)c1ccc(OCC(=O)N2CCc3ccccc3C2)c(Cl)c1)c1ccccc1` (stereo not drawn) [CBK269117], the “% of control remaining” value was found to be 124.967%.

Take `Nc1nc(CSc2nnc(-c3ccccc3O)n2Cc2ccccc2)cs1` [CBK267394]: the “% of control remaining” value was 135.724%.

As to `CC(C)C[C@H](NC(=O)OC(C)(C)C)C(=O)NC[C@H]1CC[C@H](C(=O)O)CC1` [CBK286750], the “% of control remaining” value is on record as 118.523%.

`CSc1nc(N/N=C/c2ccc(Cl)cc2)c2c3c(sc2n1)CN(C)CC3` [CBK262588]: the “% of control remaining” value came to 110%.

As for `NCCCNc1ncc(C(=O)NCc2ccccc2)c(NCC2CCCCC2)n1` [CBK215386], the “% of control remaining” value is on record as 40.2851%.

For the compound `Cc1c(NC(=O)C2CN(S(=O)(=O)c3ccccc3)CCN2S(=O)(=O)c2ccccc2)c(=O)n(-c2ccccc2)n1C` (stereo not drawn) [CBK264138], the “% of control remaining” value turned out to be 100%.

For the compound `CCc1ccc(CNC(=O)Cn2nnc(-c3ccc(C(C)N4CCC(C)CC4)cc3)n2)cc1` (stereo not drawn) [CBK164199T], the “% of control remaining” value was 93.07%.

For the compound `O=C(Nc1cc(-c2nc3ncccc3o2)ccc1Cl)c1ccco1` [CBK269730], the “% of control remaining” value stood at 109.832%.

As to `COc1ccc(Cl)cc1NC(=O)C1CN(S(=O)(=O)c2ccccc2)CCN1S(=O)(=O)c1ccccc1` (stereo not drawn) [CBK264000], the “% of control remaining” value is reported as 96.6537%.

With `COc1ccc(Cl)cc1N1CCN(Cc2ccc(OC(F)(F)F)cc2)CC1` [CBK126405], the “% of control remaining” value is reported as 105.632%.

Regarding `CCOc1cc(C(=O)O)ccc1OCCOc1cccc(C)c1` [CBK299781], the “% of control remaining” value stood at 144.637%.

On to `Cn1ncc2c1CCCC2NC(=O)N(CCO)Cc1ccccc1` (stereo not drawn) [CBK306293], for which the “% of control remaining” value came to 165.699%.

As to `Cc1cc(CC(=O)Nc2ccc3[nH]ccc3c2)on1` [CBK159690], the “% of control remaining” value was 109.85%.

`c1ccc(COc2ccc(-c3cc(Nc4ccc5[nH]ccc5c4)ncn3)cc2)cc1` [CBK090857]: the “% of control remaining” value was 106.29%.

Consider `O=C(c1ccc(-n2ccnc2)c(-n2cccc2)c1)N1CCCCCC1` [CBK284813], for which the “% of control remaining” value was 151.483%.

As for `Cc1ccc(S(=O)(=O)NCCSc2ccc(Cl)cc2)cc1[N+](=O)[O-]` [CBK264126], the “% of control remaining” value amounted to 78.8677%.

Consider `c1ccc(Cn2c(CN3CCCCC3)nc3ccccc32)cc1` [CBK269237], for which the “% of control remaining” value amounted to 129.614%.

For `Cc1c(S(=O)(=O)Nc2cc(C(F)(F)F)ccc2N2CCOCC2)cnn1-c1ccccc1` [CBK062551], the “% of control remaining” value is recorded as 99.5713%.

In the case of `O=C(CC1(C(F)(F)F)NCCN1)c1ccco1` [CBK022373], the “% of control remaining” value is recorded as 166.314%.

For the compound `CN(Cc1ccccc1N1CCOCC1)C(=O)c1ccc2ncsc2c1` [CBK296692], the “% of control remaining” value came to 131.086%.

Consider `CN(C)c1ccc(-c2nccnc2NS(=O)(=O)c2ccc3ccccc3c2)cc1` [CBK050794], for which the “% of control remaining” value is on record as 99.6961%.

For the compound `Cn1cc(-c2nccnc2OCCN2CCCC2=O)cn1` [CBK107068], the “% of control remaining” value was 112.769%.

`Cc1ccc(N2C(=O)c3ccc(C(=O)c4ccc(C(=O)O)cc4)cc3C2=O)cc1` [CBK287164]: the “% of control remaining” value amounted to 100.639%.

In the case of `CCN(Cc1ccncc1)C(=O)NCCOc1ccccc1` [CBK155148], the “% of control remaining” value came out at 178.545%.

Turning to `CCCNC(=O)c1nn2c(c1Cl)NC(c1cccs1)CC2C(F)(F)F` (stereo not drawn) [CBK307177], the “% of control remaining” value is 95.6259%.

As for `C=CCOc1c(CNc2cccc(C(=O)O)c2)cccc1OC` [CBK074432], the “% of control remaining” value turned out to be 88.9445%.

With `CNC(=O)C1(Cc2ccc(-c3ccccc3)cc2)CCN(C(=O)CCc2ccccc2)CC1` [CBK285765], the “% of control remaining” value is recorded as 140.357%.

As to `O=C(Nc1nnc(-c2ccco2)o1)c1cccc(C(F)(F)F)c1` [CBK287422], the “% of control remaining” value amounted to 112.834%.

Regarding `Cc1ccc(NC(=O)c2cnc3ccccc3n2)c(C)n1` [CBK200218], the “% of control remaining” value was found to be 95.9451%.

As for `CCc1nn(CC(=O)NC2CC2)c(=O)c2cc3sccc3n12` [CBK284029], the “% of control remaining” value turned out to be 102.961%.

In the case of `COc1ccc(NC(=O)c2cn(C)nc2CC2CCN(CCc3ccccc3)CC2)cc1` [CBK285559], the “% of control remaining” value came out at 109.287%.

`O=C1CCC[C@]2(CN(C(=O)C3CC3)C[C@H]2c2ccc(F)c(F)c2)N1` [CBK283364]: the “% of control remaining” value was found to be 81.9749%.

As to `CC(C)N1CCN(Cc2c(C(F)(F)F)[nH]c3ncccc23)CC1` [CBK285354], the “% of control remaining” value was found to be 124.087%.

Take `COCCN1C(=O)/C(=C2/C(=O)N(CC(=O)Nc3ccccc3)c3ccccc32)SC1=S` [CBK264489]: the “% of control remaining” value is given as 100%.

As to `CCn1cnnc1C1CCN(C(=O)c2ccc(C)c(Cl)c2)CC1` [CBK303997], the “% of control remaining” value is given as 143.523%.

Turning to `O=C1CC(c2ccccc2)CC(=O)C1=CNCCN1CCOCC1` (stereo not drawn) [CBK262522], the “% of control remaining” value amounted to 105.475%.

In the case of `CCN(CC)CC(=O)Nc1ccccc1OC` [CBK266213C], the “% of control remaining” value amounted to 114.683%.

Consider `COc1ccc(S(=O)(=O)N2CCC(C(=O)O)CC2)cc1Cl` [CBK267162], for which the “% of control remaining” value came out at 141.346%.

Turning to `O=C(c1cccc2[nH]ccc12)N1CCN(CCc2ccccc2)CC1` [CBK200203], the “% of control remaining” value is on record as 102.763%.

As to `CC(OC(=O)C1CCCCC1)c1nc2ccccc2[nH]1` (stereo not drawn) [CBK111483], the “% of control remaining” value was determined as 111.361%.

Consider `CCN(CC)CCn1c2ccccc2c2nc(C)sc21` [CBK266628C], for which the “% of control remaining” value amounted to 172.457%.

Consider `COc1ccc(S(=O)(=O)N2CCN(C(=S)Nc3ccc(S(N)(=O)=O)cc3)CC2)cc1` [CBK266898], for which the “% of control remaining” value is on record as 156.265%.

On to `CC(C)(C)C(C#N)C(Oc1ccc(Cl)cc1)n1cncn1` (stereo not drawn) [CBK023570], for which the “% of control remaining” value is 110.436%.

For `CN(C(=O)Cn1c(=O)n(C)c2ncccc21)C1CCCCC1` [CBK283791], the “% of control remaining” value was determined as 168.123%.

Consider `Cc1noc(C)c1NC(=O)c1cccn1C` [CBK200304], for which the “% of control remaining” value came to 120.09%.

For the compound `CC1CCCCN1CC(=O)N(C)C(C)COc1ccc(Cl)cc1` (stereo not drawn) [CBK023201], the “% of control remaining” value stood at 97.1945%.

Turning to `OC(CN1CCN(c2cccc(Cl)c2)CC1)Cn1c2ccccc2c2ccccc21` (stereo not drawn) [CBK264333], the “% of control remaining” value was 109.343%.

Turning to `O=C(NC[C@H]1CC[C@H](c2nnc(-c3ccsc3)o2)CC1)C1CCC1` [CBK283363], the “% of control remaining” value is 126.088%.

Regarding `CN(C)CCCNC(=O)C1CCN(c2cncc(-c3ccc(O)cc3)n2)CC1` [CBK126929T], the “% of control remaining” value amounted to 100%.

Regarding `Cc1cccn2cc(CC(=O)OCC(=O)NC(C)(C)C)nc12` [CBK304966], the “% of control remaining” value was 107.936%.

As for `O=C(CN1CCOCC1)NC1(c2ccccc2)CCCCC1` [CBK059545C], the “% of control remaining” value stood at 117.219%.

In the case of `CCc1cc(NC[C@@H](O)CO)nc(-c2ccc(F)c(Cl)c2)n1` [CBK132880], the “% of control remaining” value came to 40.7665%.

With `Cc1cnn(CCCNC(=S)Nc2ccc(S(N)(=O)=O)cc2)c1` [CBK266957], the “% of control remaining” value was 154.114%.

Turning to `CC(=O)N(c1ccc2oc3c(c2c1)CCCC3)S(=O)(=O)c1ccc(C(=O)O)cc1` [CBK299808], the “% of control remaining” value was 120.932%.

Take `CN1CCN(CCOC(=O)N2CCN(c3cccc(C(F)(F)F)c3)CC2)CC1` [CBK115940C]: the “% of control remaining” value turned out to be 114.547%.

Consider `Cn1c(=O)[nH]c(=O)c2c1nc(N1CCOCC1)n2CC(O)COc1ccc(I)cc1` (stereo not drawn) [CBK262438], for which the “% of control remaining” value worked out at 110.907%.

With `NC(=O)CSc1nnc(SCc2cccc3ccccc23)s1` [CBK266150], the “% of control remaining” value stood at 155.382%.

Turning to `CCn1c(=O)n(CC(=O)Nc2ccccc2F)c2cccnc21` [CBK283897], the “% of control remaining” value stood at 124.63%.

In the case of `CN(C)C(=O)c1ccc(-c2cnc(OCC3CCN(C(=O)OC(C)(C)C)CC3)cn2)cc1F` [CBK175076], the “% of control remaining” value came to 119.881%.

In the case of `CC(=O)Nc1cccc(NC(=O)c2cc(-c3ccccn3)nc3ccc(Cl)cc23)c1` [CBK267747], the “% of control remaining” value turned out to be 116.349%.

In the case of `CC1Cc2cc(-c3cn4ccccc4n3)ccc2N1S(C)(=O)=O` (stereo not drawn) [CBK285194], the “% of control remaining” value is 101.694%.
